Measurements: the supplement of paper PMC8728848
This is one part of the list.

Legend:
Test in all cases: glycan array binding signal (z-score within array); higher = stronger binding
Settings in all cases: glycan notation: IUPAC condensed, linker removed
[1] = molecular target: Neu5Ac(a2-6)Gal(b1-4)GlcNAc(b1-3)Gal(b1-4)GlcNAc(b1-3)GalNAc
Method in brief: (§1)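 Columns mapping to the same glycan were averaged after glycan names were converted to IUPAC-condensed notation. The data come from 3228 arrays in the Consortium for Functional Glycomics database, limited to those with an available protein sequence. Binding is reported as a within-array Z-score averaged across arrays of one protein sequence and across linkers.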

[2] = molecular target: Neu5Ac(a2-6)Gal(b1-4)GlcNAc(b1-3)Gal(b1-4)GlcNAc(b1-3)[Neu5Ac(a2-6)Gal(b1-4)GlcNAc(b1-3)Gal(b1-4)GlcNAc(b1-6)]GalNAc
Method in brief: as §1

[3] = molecular target: Neu5Ac(a2-6)Gal(b1-4)GlcNAc(b1-3)Gal(b1-4)GlcNAc(b1-6)[Gal(b1-3)]GalNAc
Method in brief: as §1

[4] = molecular target: Neu5Ac(a2-6)Gal(b1-4)GlcNAc(b1-3)Gal(b1-4)[Fuc(a1-3)]GlcNAc(b1-3)Gal(b1-4)[Fuc(a1-3)]GlcNAc
Method in brief: as §1

[5] = molecular target: Neu5Ac(a2-6)Gal(b1-4)GlcNAc(b1-3)GalNAc
Method in brief: as §1

[6] = molecular target: Neu5Ac(a2-6)Gal(b1-4)GlcNAc(b1-3)[Neu5Ac(a2-6)Gal(b1-4)GlcNAc(b1-6)]GalNAc
Method in brief: as §1

[7] = molecular target: Neu5Ac(a2-6)Gal(b1-4)GlcNAc(b1-6)GalNAc
Method in brief: as §1

[8] = molecular target: Neu5Ac(a2-6)Gal(b1-4)GlcNAc(b1-6)[Gal(b1-3)GlcNAc(b1-3)]Gal(b1-4)Glc
Method in brief: as §1

[9] = molecular target: Neu5Ac(a2-6)Gal(b1-4)GlcNAc(b1-6)[Gal(b1-3)]GalNAc
Method in brief: as §1

[10] = molecular target: Neu5Ac(a2-6)Gal(b1-4)GlcNAc6S
Method in brief: as §1

[11] = molecular target: Neu5Ac(a2-6)GalNAc
Method in brief: as §1

[12] = molecular target: Neu5Ac(a2-6)GalNAc(b1-4)GlcNAc
Method in brief: as §1

[13] = molecular target: Neu5Ac(a2-6)GalNAc(b1-4)GlcNAc6S
Method in brief: as §1

[14] = molecular target: Neu5Ac(a2-6)GlcNAc(b1-4)GlcNAc
Method in brief: as §1

[15] = molecular target: Neu5Ac(a2-6)GlcNAc(b1-4)GlcNAc(b1-4)GlcNAc
Method in brief: as §1

[16] = molecular target: Neu5Ac(a2-8)Neu5Ac
Method in brief: as §1

[17] = molecular target: Neu5Ac(a2-8)Neu5Ac(a2-3)Gal(b1-3)GalNAc(b1-4)[Neu5Ac(a2-3)]Gal(b1-4)Glc
Method in brief: as §1

[18] = molecular target: Neu5Ac(a2-8)Neu5Ac(a2-3)Gal(b1-3)GalNAc(b1-4)[Neu5Ac(a2-8)Neu5Ac(a2-3)]Gal(b1-4)Glc
Method in brief: as §1

[19] = molecular target: Neu5Ac(a2-8)Neu5Ac(a2-3)Gal(b1-4)Glc
Method in brief: as §1

[20] = molecular target: Neu5Ac(a2-8)Neu5Ac(a2-3)Gal(b1-4)GlcNAc
Method in brief: as §1

[21] = molecular target: Neu5Ac(a2-8)Neu5Ac(a2-3)[Gal(b1-3)GalNAc(b1-4)]Gal(b1-4)Glc
Method in brief: as §1

[22] = molecular target: Neu5Ac(a2-8)Neu5Ac(a2-3)[GalNAc(b1-4)]Gal(b1-4)Glc
Method in brief: as §1

[23] = molecular target: Neu5Ac(a2-8)Neu5Ac(a2-8)Neu5Ac
Method in brief: as §1

[24] = molecular target: Neu5Ac(a2-8)Neu5Ac(a2-8)Neu5Ac(a2-3)Gal(b1-4)Glc
Method in brief: as §1

[25] = molecular target: Neu5Ac(a2-8)Neu5Ac(a2-8)Neu5Ac(a2-3)[Gal(b1-3)GalNAc(b1-4)]Gal(b1-4)Glc
Method in brief: as §1

[26] = molecular target: Neu5Ac(a2-8)Neu5Ac(a2-8)Neu5Ac(a2-3)[GalNAc(b1-4)]Gal(b1-4)Glc
Method in brief: as §1

[27] = molecular target: Neu5Ac(a2-8)Neu5Ac(a2-8)Neu5Ac(a2-8)Neu5Ac(a2-3)[GalNAc(b1-4)]Gal(b1-4)Glc
Method in brief: as §1

[28] = molecular target: Neu5Ac(a2-8)Neu5Gc(a2-3)Gal(b1-4)GlcNAc
Method in brief: as §1

[29] = molecular target: Neu5Ac(b2-6)Gal(b1-4)GlcNAc
Method in brief: as §1

[30] = molecular target: Neu5Ac(b2-6)GalNAc
Method in brief: as §1

[31] = molecular target: Neu5Ac9Ac(a2-3)Gal(b1-3)GlcNAc
Method in brief: as §1

[32] = molecular target: Neu5Ac9Ac(a2-3)Gal(b1-4)GlcNAc
Method in brief: as §1

[33] = molecular target: Neu5Ac9Ac(a2-6)Gal(b1-4)GlcNAc
Method in brief: as §1

[34] = molecular target: Neu5Gc(a2-3)Gal(b1-3)GlcNAc
Method in brief: as §1

[35] = molecular target: Neu5Gc(a2-3)Gal(b1-3)[Fuc(a1-4)]GlcNAc
Method in brief: as §1

[36] = molecular target: Neu5Gc(a2-3)Gal(b1-4)Glc
Method in brief: as §1

[37] = molecular target: Neu5Gc(a2-3)Gal(b1-4)GlcNAc
Method in brief: as §1

[38] = molecular target: Neu5Gc(a2-3)Gal(b1-4)GlcNAc(b1-3)Gal(b1-4)GlcNAc(b1-2)Man(a1-3)[Neu5Gc(a2-3)Gal(b1-4)GlcNAc(b1-3)Gal(b1-4)GlcNAc(b1-2)Man(a1-6)]Man(b1-4)GlcNAc(b1-4)GlcNAc
Method in brief: as §1

[39] = molecular target: Neu5Gc(a2-3)Gal(b1-4)[Fuc(a1-3)]GlcNAc
Method in brief: as §1

[40] = molecular target: Neu5Gc(a2-6)Gal(b1-4)GlcNAc
Method in brief: as §1

[41] = molecular target: Neu5Gc(a2-6)GalNAc
Method in brief: as §1

[42] = molecular target: Neu5Gc(a2-8)Neu5Ac(a2-3)Gal(b1-4)GlcNAc
Method in brief: as §1

[43] = molecular target: Neu5Gc(a2-8)Neu5Gc(a2-3)Gal(b1-4)GlcNAc
Method in brief: as §1

[44] = molecular target: Neu5Gc(a2-8)Neu5Gc(a2-3)Gal(b1-4)GlcNAc(b1-3)Gal(b1-4)GlcNAc
Method in brief: as §1

[45] = molecular target: Neu5Gc(a2-8)Neu5Gc(a2-6)Gal(b1-4)GlcNAc
Method in brief: as §1

[46] = molecular target: Neu5Gc(b2-6)Gal(b1-4)GlcNAc
Method in brief: as §1

B1: PX9961KLbvu-535-38-535 (Bacteroides vulgatus) (protein)
chain: DKAYTDAESYTKGLHKIYSVWALSGQDGSSSSDISGLDAGNTALLRCWWTLQEQPTDEMKNAWNDAWCTEVNYMTWTTNKVEPIEGVYQRCMYIVALVNEFLKNIPNAPESIDKESYIAQARFNRAFAYYVLMDMFALPPFITEKNYSIEPAPLSREDLFNWIEAELNEIKPNLPSPRSEYGVADQAVASALLARMYLNAEIYTGKARYTECINACNEVIKAGYQLADNYADLFKADNGENPDTKKEIIYPIIFDGDKTQSWGMAAIIIGARGAEDKDVLLAHSGVDQGWAGFRATSNLVHLFDFQNDEEPKASEIQDKRGIFYDKGRSIDITSSVSGTFETEGWSVFKFSNLNSNGQPGKNTLWVDTDFPMFRLGDIYLMYAEAVARGGEGSKASAVEYINALRKRAYGDDKHNISENWLEENNFRNLLDERGRELYWEGIRRTDLVRFDLLTSGSYTWDFKGGINTGVGVNKRYNVYPIPVTDLTVNGNLQQNEGY
glycan array binding signal (z-score) [1]: -0.817
glycan array binding signal (z-score) [2]: 0.137
glycan array binding signal (z-score) [3]: -0.167
glycan array binding signal (z-score) [4]: 0.638
glycan array binding signal (z-score) [5]: -1.14
glycan array binding signal (z-score) [6]: -0.054
glycan array binding signal (z-score) [7]: 1.1
glycan array binding signal (z-score) [8]: -0.741
glycan array binding signal (z-score) [9]: -0.121
glycan array binding signal (z-score) [10]: -0.707
glycan array binding signal (z-score) [11]: -0.303
glycan array binding signal (z-score) [12]: -0.718
glycan array binding signal (z-score) [13]: -0.47
glycan array binding signal (z-score) [14]: -0.213
glycan array binding signal (z-score) [15]: -0.846
glycan array binding signal (z-score) [16]: 0.076
glycan array binding signal (z-score) [17]: 0.21
glycan array binding signal (z-score) [18]: -0.209
glycan array binding signal (z-score) [19]: -0.261
glycan array binding signal (z-score) [20]: -0.884
glycan array binding signal (z-score) [21]: -0.51
glycan array binding signal (z-score) [22]: 0.145
glycan array binding signal (z-score) [23]: -0.48
glycan array binding signal (z-score) [24]: -0.175
glycan array binding signal (z-score) [25]: 0.235
glycan array binding signal (z-score) [26]: 0.12
glycan array binding signal (z-score) [27]: -0.242
glycan array binding signal (z-score) [28]: 19.4
glycan array binding signal (z-score) [29]: 0.524
glycan array binding signal (z-score) [30]: -0.986
glycan array binding signal (z-score) [31]: -0.088
glycan array binding signal (z-score) [32]: -1.15
glycan array binding signal (z-score) [33]: 0.457
glycan array binding signal (z-score) [34]: -0.403
glycan array binding signal (z-score) [35]: -1.01
glycan array binding signal (z-score) [36]: -0.258
glycan array binding signal (z-score) [37]: 0.722
glycan array binding signal (z-score) [38]: 0.451
glycan array binding signal (z-score) [39]: -0.252
glycan array binding signal (z-score) [40]: -0.211
glycan array binding signal (z-score) [41]: 0.161
glycan array binding signal (z-score) [42]: -0.218
glycan array binding signal (z-score) [43]: -0.599
glycan array binding signal (z-score) [44]: -0.654
glycan array binding signal (z-score) [45]: 0.005
glycan array binding signal (z-score) [46]: -0.484
